These are yes or no findings as the source states them, for the method shown. For some assays here: Binding seen in cells or lysates may run through a third protein. Some binding calls cover weakened binding; strength is not graded here. Where a sequence is shown, tags or fusion partners need not be part of it.
T1: GasA tagged N terminally with the N-terminal half of GFP (A. flagrans)
T1 sequence: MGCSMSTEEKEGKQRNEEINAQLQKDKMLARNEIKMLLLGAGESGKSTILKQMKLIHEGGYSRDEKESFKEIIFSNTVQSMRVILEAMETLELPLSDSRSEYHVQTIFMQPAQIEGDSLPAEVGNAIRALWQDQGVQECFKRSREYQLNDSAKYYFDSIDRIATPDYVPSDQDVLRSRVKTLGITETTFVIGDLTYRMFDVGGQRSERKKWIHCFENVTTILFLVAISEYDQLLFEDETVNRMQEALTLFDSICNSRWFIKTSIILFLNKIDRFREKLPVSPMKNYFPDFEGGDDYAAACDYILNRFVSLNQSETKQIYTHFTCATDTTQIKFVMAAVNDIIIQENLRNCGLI

T2: GasA (yeast two-hybrid fusion) (A. flagrans)
T2 sequence: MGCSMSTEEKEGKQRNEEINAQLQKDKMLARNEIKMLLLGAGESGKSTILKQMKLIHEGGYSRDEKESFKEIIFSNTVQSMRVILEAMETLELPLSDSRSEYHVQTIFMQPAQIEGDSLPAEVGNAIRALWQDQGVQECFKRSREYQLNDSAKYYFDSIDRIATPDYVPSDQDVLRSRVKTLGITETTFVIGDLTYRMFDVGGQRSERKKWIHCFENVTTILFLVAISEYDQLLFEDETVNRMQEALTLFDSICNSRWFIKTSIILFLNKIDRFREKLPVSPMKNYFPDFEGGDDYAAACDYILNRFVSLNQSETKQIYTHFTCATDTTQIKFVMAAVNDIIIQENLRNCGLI


Assays:
[1] = target: T1, GasA tagged N terminally with the N-terminal half of GFP (A. flagrans); assay: split reporter; split GFP in A. flagrans hyphae; gprC-GFPC and GFPN-gasA each from its own promoter; hyphae induced with nematodes (uninduced hyphae and single-construct strains as controls); fluorescence microscopy
[2] = target: T2, GasA (yeast two-hybrid fusion) (A. flagrans); assay: two-hybrid; Matchmaker Gold system (Clontech); pGBKT7 and pGADT7; strains AH109 and Y187 mated; dilution series on SD-LW and SD-LWH agar plates for 3-5 days

Binder	binding [1]	binding [2]
GprC tagged at the C terminus with the C-terminal half of GFP (receptor, UniProt A0A437AGY2 1-538) MAFTTLSFTIAVLNLIGSLSSFFGSGFIVVTYLLLPIKRHFRHSLILNLAIADFINSSNNSTSGLWRLLKRREIPDSPGCVTNGFLGQLSVQATDTSILAIAIVTVWSLTRKTTICETLPRTTTALICATTWILPITTSFIALGMNRYGPVSGNWCWIKAEPSYFRYVMTHGWRFAFILSEIVMYTYLHFYIRKRFGAFLDASRCSSHTGRSTVRDVGTEFRNDSMAIRLDSVAIRNDSLAPAEEPQRSDSQMPFSITDEGDIRPIGARGQDLESGEAFVRTEVWISETYDDKTLPAHAVTTTISSGNNSLEQPNTDLRPETANTIESRRPKFSNPFAHRRADEDDLADVDVNDENERKIRQQNASRSRRVRRILLLNAYPAMYILLWIPGIINRLIEASGGKSSVMQIMQASTQFVGLANAITYGWNERVWRQLKDYIADRWGSDRKRSVEELAVQKVELENRLRVGLKGSKERLREIRDGLRSPNKKDDDEVPLDNRGQLMYINGTWQWSQTASINSQDGDADDREISRDPGPRRE	binds	–
full-length GprC (yeast two-hybrid fusion) (receptor, UniProt A0A437AGY2 1-538) MAFTTLSFTIAVLNLIGSLSSFFGSGFIVVTYLLLPIKRHFRHSLILNLAIADFINSSNNSTSGLWRLLKRREIPDSPGCVTNGFLGQLSVQATDTSILAIAIVTVWSLTRKTTICETLPRTTTALICATTWILPITTSFIALGMNRYGPVSGNWCWIKAEPSYFRYVMTHGWRFAFILSEIVMYTYLHFYIRKRFGAFLDASRCSSHTGRSTVRDVGTEFRNDSMAIRLDSVAIRNDSLAPAEEPQRSDSQMPFSITDEGDIRPIGARGQDLESGEAFVRTEVWISETYDDKTLPAHAVTTTISSGNNSLEQPNTDLRPETANTIESRRPKFSNPFAHRRADEDDLADVDVNDENERKIRQQNASRSRRVRRILLLNAYPAMYILLWIPGIINRLIEASGGKSSVMQIMQASTQFVGLANAITYGWNERVWRQLKDYIADRWGSDRKRSVEELAVQKVELENRLRVGLKGSKERLREIRDGLRSPNKKDDDEVPLDNRGQLMYINGTWQWSQTASINSQDGDADDREISRDPGPRRE	–	binds
